Article PMC5031922
No constants are given. Whether binding was seen depends on the method and setting. In cells and extracts the contact can be indirect. A yes stands for co-enrichment or nearness to the bait. Other partners may have been found. No binding means not detected with the bait. Tags and fused reporters may be left off the sequences shown.

By UniProt entry, the sequences of proteins in these tests, tags left out.
UniProt Q96KQ7: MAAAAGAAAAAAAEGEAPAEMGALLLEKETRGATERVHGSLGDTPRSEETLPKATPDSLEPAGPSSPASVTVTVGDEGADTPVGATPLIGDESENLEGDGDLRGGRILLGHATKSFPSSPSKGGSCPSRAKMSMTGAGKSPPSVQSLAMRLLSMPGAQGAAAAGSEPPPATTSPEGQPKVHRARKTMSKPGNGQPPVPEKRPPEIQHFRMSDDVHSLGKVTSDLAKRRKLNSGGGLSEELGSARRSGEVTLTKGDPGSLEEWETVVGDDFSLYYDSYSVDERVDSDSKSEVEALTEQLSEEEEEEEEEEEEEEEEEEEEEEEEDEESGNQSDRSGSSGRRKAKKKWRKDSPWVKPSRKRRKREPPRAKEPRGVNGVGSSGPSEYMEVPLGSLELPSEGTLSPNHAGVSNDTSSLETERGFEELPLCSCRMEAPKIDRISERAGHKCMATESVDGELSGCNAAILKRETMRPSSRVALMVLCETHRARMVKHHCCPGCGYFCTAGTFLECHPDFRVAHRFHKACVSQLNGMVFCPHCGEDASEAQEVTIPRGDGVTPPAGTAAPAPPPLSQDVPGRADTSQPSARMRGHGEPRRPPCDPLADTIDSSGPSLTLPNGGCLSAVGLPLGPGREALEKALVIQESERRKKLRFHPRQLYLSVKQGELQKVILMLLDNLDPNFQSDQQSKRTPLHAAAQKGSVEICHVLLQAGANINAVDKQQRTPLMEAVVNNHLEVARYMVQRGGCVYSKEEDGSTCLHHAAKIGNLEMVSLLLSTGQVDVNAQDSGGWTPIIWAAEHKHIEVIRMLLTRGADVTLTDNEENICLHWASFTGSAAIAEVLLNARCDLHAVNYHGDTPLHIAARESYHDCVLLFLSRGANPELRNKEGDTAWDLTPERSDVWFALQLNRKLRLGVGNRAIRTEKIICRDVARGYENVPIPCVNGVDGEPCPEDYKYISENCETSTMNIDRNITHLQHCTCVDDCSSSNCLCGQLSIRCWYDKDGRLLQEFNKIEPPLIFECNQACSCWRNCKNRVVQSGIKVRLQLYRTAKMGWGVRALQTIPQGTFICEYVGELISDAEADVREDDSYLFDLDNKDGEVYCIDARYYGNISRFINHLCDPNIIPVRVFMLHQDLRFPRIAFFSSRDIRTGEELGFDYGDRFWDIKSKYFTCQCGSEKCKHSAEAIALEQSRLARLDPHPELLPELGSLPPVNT
UniProt Q9H9B1: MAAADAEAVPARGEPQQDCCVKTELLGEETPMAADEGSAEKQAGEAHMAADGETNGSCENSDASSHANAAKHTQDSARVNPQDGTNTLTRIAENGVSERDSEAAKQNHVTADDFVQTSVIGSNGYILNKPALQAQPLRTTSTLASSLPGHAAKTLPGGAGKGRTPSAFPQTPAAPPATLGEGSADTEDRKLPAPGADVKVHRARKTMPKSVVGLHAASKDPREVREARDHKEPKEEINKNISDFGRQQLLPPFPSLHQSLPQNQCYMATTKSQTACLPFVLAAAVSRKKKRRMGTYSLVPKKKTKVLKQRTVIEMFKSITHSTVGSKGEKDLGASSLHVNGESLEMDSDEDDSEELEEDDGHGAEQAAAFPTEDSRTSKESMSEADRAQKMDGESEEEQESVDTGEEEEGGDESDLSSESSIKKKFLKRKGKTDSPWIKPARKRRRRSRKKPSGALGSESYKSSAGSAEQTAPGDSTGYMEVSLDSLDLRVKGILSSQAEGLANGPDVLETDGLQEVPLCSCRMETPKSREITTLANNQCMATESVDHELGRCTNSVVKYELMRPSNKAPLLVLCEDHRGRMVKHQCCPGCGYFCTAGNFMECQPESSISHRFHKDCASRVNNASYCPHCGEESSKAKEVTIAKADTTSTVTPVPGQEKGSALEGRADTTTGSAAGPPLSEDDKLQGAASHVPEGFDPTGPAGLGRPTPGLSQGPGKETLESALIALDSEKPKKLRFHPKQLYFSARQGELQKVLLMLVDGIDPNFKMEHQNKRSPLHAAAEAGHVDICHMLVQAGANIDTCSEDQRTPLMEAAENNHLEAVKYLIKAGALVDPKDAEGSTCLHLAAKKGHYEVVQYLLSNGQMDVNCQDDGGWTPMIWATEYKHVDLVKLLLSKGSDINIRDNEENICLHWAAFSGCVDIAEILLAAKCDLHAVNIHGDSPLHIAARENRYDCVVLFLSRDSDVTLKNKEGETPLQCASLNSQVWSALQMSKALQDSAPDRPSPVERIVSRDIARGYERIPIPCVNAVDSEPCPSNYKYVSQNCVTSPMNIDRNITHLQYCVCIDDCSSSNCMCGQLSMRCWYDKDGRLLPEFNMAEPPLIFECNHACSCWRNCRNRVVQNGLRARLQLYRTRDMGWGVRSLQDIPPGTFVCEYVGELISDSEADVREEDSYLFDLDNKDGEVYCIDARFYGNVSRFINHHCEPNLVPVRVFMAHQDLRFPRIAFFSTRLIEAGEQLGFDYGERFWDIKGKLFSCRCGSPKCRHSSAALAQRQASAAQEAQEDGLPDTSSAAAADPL
UniProt O95785: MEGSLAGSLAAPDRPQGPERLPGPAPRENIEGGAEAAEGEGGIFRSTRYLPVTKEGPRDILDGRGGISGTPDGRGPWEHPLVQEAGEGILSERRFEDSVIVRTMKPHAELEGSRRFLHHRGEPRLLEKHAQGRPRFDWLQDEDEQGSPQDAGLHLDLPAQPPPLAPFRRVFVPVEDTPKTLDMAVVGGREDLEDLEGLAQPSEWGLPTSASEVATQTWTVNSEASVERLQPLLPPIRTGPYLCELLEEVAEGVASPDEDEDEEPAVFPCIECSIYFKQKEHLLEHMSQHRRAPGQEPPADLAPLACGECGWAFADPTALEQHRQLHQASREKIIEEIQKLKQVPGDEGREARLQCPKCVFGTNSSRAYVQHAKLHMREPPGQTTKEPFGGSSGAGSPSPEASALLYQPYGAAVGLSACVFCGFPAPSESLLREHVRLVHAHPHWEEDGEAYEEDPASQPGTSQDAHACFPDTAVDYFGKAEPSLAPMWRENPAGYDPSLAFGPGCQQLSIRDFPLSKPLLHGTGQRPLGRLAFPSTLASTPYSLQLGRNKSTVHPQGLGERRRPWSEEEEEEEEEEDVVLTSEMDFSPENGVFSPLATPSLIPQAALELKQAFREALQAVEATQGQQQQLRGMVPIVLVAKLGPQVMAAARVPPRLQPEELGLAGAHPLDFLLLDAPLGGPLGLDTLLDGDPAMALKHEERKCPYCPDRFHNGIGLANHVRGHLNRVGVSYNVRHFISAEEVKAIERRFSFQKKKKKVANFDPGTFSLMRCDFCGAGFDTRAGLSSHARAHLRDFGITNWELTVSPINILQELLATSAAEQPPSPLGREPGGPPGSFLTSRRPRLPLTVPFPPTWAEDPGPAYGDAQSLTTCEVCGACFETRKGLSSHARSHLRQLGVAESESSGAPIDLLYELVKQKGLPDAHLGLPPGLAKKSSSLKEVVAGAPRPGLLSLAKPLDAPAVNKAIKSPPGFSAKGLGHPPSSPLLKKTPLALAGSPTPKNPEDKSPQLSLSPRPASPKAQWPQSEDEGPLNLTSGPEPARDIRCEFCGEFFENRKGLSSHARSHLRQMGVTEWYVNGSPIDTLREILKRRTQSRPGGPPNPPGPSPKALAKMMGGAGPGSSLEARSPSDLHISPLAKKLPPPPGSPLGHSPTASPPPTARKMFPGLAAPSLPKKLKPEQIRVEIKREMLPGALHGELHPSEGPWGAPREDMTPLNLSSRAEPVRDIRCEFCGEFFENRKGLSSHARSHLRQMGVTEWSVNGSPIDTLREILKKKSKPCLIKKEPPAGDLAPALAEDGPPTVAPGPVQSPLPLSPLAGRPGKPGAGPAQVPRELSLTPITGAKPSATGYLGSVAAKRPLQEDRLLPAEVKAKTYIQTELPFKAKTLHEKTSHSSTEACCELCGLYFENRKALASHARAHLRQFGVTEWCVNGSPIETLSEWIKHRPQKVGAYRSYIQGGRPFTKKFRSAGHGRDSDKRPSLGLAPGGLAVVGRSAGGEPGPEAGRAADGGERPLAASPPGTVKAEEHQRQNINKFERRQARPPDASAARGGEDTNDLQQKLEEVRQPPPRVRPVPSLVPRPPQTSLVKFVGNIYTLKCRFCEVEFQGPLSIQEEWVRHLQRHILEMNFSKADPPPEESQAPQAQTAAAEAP

These substances were tested against T1, GFP-tagged full-length ZNF644 H1283A (human) (UniProt Q9H582) (assay: affinity purification with mass spectrometry; GFP-tagged bait in Flp-In T-Rex HEK293, induced with 1 ug/ml doxycycline for 24 hr; purified with rabbit anti-GFP antibody).
T1 sequence: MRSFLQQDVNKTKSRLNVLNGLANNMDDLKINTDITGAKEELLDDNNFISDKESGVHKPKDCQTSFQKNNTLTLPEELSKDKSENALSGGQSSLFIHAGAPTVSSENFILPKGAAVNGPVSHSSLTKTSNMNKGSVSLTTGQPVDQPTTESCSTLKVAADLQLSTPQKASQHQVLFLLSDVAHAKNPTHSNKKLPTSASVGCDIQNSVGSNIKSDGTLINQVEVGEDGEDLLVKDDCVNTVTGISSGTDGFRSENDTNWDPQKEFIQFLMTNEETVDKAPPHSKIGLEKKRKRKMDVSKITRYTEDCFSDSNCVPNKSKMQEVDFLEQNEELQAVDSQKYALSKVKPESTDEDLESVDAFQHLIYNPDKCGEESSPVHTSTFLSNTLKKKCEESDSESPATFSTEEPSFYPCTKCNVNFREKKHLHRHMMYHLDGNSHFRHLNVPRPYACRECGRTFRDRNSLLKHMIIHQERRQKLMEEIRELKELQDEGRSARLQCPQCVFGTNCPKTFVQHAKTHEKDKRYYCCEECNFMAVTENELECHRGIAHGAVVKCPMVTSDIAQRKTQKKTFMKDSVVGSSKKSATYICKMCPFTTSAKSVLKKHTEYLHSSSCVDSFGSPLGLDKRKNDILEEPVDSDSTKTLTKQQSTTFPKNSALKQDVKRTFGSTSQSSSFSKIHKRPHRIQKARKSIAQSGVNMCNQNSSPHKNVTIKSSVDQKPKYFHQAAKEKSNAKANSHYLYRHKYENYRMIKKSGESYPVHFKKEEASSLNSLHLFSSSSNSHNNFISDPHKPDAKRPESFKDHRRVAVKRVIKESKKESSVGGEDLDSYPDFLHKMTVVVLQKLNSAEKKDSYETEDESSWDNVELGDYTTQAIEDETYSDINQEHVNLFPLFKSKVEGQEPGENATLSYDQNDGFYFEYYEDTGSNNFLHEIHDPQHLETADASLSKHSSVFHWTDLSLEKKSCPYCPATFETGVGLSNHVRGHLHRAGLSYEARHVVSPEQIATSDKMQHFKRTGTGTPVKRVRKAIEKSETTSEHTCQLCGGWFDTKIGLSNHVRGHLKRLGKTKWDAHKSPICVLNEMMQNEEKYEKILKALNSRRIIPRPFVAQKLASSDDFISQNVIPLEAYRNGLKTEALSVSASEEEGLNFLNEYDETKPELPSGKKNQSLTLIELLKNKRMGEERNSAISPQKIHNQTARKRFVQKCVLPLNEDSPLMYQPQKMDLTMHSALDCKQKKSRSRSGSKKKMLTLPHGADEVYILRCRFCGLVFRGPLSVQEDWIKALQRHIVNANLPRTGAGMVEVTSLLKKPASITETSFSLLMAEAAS

binding	Substance
no binding	G9a (endogenous) (from UniProt Q96KQ7 1-1210) (enzyme)
no binding	GLP (from UniProt Q9H9B1 1-1298) (enzyme)
no binding	WIZ (from UniProt O95785 1-1651)
